The values that follow come from the supplement of paper PMC12819154, “High-throughput peptide-centric local stability assay extends protein–ligand identification to membrane proteins, tissues and bacteria” (Nature Structural & Molecular Biology, 2025).

Protein sequences, listed by entry. Tags and fused reporters are not part of them. Lines headed by an entry give the natural chain unless they say otherwise; changes in a name come on top.
UniProt Q8BKX1: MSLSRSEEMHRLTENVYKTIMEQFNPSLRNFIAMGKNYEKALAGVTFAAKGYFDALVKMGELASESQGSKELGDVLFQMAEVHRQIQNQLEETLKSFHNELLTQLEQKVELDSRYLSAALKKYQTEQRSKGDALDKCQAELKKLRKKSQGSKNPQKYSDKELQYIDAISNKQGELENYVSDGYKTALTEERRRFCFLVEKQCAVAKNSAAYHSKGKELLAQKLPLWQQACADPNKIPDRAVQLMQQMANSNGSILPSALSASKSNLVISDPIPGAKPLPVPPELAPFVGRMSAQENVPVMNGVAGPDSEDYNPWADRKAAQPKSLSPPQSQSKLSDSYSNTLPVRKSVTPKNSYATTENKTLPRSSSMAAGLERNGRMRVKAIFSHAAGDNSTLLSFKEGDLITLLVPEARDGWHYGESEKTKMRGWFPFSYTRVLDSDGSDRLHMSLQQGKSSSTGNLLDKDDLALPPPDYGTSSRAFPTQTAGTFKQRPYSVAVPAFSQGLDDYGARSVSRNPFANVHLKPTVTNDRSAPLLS
UniProt Q8BL95: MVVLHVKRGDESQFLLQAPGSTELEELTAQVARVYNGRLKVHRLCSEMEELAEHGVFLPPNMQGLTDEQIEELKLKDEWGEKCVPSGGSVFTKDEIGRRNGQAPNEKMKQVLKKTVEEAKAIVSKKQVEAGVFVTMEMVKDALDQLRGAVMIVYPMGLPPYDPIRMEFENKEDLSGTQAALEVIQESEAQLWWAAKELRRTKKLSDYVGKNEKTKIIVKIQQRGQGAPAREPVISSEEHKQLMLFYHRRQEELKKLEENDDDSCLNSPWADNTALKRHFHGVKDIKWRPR
UniProt Q8BLN5: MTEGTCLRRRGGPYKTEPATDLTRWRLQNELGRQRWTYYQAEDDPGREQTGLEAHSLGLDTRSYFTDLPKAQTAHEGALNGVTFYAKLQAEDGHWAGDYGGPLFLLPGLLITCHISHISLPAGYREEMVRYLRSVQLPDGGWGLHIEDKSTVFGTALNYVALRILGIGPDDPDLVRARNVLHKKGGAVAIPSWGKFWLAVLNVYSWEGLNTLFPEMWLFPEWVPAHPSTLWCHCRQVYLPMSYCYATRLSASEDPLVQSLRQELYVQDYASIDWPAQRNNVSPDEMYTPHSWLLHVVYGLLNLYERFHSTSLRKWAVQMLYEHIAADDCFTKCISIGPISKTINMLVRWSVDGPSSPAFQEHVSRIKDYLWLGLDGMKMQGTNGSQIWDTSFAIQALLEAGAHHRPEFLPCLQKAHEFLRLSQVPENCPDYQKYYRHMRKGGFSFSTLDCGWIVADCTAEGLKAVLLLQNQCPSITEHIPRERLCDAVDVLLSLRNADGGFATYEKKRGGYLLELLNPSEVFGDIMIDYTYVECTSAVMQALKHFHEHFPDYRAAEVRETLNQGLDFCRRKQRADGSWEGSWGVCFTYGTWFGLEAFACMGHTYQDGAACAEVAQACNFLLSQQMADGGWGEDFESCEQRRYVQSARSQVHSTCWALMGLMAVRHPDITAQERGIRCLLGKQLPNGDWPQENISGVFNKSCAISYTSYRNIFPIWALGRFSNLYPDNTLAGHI
UniProt Q8BP27: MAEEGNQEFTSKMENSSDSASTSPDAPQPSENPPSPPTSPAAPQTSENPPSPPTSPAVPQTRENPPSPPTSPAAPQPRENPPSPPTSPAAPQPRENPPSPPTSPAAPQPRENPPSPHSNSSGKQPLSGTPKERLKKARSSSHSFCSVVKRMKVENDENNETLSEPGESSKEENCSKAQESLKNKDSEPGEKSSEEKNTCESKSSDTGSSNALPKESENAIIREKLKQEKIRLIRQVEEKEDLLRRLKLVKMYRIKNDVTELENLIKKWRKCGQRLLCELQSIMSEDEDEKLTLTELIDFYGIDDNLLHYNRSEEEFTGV
UniProt Q8BJU0: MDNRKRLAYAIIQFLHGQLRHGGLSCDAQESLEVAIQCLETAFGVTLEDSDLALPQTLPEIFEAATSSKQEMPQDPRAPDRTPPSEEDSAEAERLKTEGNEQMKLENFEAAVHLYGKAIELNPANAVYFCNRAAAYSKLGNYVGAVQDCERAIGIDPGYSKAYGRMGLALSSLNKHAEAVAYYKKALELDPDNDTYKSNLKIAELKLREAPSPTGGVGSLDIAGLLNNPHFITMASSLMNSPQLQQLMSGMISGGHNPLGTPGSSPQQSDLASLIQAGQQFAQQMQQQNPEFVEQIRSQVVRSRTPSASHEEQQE
UniProt Q8BUH8: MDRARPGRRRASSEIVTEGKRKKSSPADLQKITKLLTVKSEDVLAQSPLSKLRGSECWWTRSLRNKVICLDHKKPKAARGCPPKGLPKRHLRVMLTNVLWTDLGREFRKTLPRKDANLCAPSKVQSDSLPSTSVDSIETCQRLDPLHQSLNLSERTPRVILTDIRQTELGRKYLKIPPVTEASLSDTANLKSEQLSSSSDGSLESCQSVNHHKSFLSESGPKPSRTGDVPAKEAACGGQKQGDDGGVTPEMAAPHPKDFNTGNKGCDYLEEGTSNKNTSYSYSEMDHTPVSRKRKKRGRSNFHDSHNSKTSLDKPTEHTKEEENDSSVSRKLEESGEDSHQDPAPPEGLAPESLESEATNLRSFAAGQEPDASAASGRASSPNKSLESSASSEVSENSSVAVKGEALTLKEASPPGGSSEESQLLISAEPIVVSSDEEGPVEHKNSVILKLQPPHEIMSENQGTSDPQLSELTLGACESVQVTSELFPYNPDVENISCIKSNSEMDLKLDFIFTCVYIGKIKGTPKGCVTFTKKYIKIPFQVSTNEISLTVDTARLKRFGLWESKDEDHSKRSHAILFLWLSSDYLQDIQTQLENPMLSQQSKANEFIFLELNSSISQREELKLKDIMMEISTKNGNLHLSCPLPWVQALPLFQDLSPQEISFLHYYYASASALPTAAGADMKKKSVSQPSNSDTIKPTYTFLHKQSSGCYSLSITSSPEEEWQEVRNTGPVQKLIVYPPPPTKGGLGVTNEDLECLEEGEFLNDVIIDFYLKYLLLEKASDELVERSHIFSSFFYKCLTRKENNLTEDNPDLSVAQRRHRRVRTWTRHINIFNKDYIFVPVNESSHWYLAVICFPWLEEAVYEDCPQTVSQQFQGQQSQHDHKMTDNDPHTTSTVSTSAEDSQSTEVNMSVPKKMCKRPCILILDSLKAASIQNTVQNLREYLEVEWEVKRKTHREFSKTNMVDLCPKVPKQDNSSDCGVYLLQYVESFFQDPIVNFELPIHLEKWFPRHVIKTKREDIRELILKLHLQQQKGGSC
UniProt Q8BQQ1: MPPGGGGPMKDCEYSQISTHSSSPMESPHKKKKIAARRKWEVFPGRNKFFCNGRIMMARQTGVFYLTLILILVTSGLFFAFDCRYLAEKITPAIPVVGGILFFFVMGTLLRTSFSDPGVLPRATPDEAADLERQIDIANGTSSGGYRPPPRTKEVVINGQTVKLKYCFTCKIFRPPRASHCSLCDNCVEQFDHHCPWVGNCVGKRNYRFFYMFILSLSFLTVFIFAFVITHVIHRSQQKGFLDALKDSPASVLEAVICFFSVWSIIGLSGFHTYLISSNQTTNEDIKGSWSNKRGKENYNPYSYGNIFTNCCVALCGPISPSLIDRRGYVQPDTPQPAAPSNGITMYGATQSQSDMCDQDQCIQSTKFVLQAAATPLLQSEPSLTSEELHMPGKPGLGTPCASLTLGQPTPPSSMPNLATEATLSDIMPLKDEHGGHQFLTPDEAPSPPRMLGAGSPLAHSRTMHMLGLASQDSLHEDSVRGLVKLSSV
UniProt Q8BQ30: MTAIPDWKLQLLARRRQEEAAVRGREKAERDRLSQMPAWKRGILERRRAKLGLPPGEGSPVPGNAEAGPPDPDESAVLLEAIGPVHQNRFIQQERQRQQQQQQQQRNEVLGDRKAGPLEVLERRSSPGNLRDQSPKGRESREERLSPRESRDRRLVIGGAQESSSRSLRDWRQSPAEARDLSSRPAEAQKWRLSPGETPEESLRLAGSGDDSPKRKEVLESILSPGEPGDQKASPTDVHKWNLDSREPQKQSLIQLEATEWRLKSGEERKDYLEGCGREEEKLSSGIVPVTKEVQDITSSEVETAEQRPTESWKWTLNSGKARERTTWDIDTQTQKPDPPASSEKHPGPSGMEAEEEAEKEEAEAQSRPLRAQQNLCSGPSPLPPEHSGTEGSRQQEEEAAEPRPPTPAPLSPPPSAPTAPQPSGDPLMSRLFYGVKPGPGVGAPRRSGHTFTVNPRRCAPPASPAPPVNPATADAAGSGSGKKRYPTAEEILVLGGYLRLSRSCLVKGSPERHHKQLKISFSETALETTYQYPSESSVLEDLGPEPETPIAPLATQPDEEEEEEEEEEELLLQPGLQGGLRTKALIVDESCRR
UniProt Q8BKF1: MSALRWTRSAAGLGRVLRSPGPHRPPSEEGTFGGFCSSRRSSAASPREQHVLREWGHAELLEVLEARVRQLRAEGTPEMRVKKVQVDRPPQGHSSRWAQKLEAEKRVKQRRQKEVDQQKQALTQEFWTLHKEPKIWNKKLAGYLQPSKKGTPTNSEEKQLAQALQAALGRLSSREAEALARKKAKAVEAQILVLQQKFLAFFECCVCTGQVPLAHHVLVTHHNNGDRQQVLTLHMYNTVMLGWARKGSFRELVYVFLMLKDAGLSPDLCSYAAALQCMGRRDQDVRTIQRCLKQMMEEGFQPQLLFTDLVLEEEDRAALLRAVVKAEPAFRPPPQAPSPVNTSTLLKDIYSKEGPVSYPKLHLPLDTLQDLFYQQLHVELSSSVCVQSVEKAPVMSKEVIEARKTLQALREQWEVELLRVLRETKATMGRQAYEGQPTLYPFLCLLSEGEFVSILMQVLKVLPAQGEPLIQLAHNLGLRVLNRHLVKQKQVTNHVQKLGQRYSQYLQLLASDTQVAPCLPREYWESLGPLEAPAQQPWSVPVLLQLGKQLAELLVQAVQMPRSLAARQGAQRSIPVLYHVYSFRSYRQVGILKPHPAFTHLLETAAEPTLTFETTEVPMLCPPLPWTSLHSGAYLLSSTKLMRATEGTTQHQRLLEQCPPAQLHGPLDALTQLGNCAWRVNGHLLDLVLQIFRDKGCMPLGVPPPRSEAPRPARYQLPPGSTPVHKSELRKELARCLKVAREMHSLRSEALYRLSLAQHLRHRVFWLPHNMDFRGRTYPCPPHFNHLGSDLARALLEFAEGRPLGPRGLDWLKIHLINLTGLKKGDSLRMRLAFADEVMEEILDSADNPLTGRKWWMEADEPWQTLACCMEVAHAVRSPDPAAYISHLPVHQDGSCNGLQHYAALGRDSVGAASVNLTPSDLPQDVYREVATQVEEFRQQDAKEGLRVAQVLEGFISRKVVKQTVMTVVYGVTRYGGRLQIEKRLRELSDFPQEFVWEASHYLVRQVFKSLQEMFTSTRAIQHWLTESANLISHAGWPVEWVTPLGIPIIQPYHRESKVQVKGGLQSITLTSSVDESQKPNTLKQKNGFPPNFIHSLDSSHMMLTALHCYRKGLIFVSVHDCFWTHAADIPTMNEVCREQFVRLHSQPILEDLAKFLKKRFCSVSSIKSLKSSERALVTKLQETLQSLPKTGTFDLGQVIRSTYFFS
UniProt Q8BIH0: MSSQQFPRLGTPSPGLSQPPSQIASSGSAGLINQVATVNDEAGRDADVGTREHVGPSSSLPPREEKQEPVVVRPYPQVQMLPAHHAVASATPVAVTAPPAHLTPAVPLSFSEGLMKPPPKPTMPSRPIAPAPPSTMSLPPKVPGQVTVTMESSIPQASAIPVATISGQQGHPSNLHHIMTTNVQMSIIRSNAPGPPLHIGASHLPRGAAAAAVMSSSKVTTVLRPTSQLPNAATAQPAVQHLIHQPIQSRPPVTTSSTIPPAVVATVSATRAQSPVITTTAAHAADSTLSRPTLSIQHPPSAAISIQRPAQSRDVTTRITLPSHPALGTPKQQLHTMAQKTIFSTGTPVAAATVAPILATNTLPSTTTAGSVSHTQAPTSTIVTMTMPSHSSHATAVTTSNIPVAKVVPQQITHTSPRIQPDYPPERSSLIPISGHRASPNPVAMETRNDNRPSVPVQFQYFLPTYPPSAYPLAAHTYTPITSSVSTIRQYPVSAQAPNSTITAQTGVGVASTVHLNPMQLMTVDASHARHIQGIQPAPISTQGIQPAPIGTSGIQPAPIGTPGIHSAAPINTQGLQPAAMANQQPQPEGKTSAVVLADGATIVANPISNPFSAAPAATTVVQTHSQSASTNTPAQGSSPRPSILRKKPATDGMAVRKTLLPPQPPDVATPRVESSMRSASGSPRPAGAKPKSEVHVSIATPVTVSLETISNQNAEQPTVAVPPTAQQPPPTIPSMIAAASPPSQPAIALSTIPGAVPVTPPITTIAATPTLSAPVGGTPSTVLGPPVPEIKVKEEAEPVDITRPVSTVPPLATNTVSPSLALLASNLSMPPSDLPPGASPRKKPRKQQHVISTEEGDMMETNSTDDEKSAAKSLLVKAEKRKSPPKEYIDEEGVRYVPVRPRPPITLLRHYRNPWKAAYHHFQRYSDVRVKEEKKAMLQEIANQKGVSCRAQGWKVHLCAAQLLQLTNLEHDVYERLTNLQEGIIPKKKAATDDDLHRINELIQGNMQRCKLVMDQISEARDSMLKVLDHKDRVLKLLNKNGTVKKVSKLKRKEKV

Some of the results follow. Most values lie at the level of the controls, where differences are scatter.

Compound in the experiment: CN[C@@H]1C[C@H]2O[C@@](C)([C@@H]1OC)n1c3ccccc3c3c4c(c5c6ccccc6n2c5c31)C(=O)NC4 [staurosporine]
Kind of experiment: log2 fold change of tryptic peptide abundance, ligand vs vehicle (limited proteolysis) (log2 ratio); higher = more trypsin-susceptible (destabilized). The settings on record: ligand concentration: 20 uM; sample: mouse liver crude lysate; replicate design: treated separately.
Regarding “UniProt Q8BKX1 (peptide sequence: VLDSDGSDRLHMSLQQGK, peptide start residue: 435)”, the log2 fold change was -0.346. Under “UniProt Q8BL95 (peptide sequence: KLSDYVGK, peptide start residue: 203)” stands 0.0949; under “UniProt Q8BTZ5 (peptide sequence: IDICNHQGATPLVLAK, peptide start residue: 101)”, -0.203; under “UniProt Q8BLN5 (peptide sequence: EQTGLEAHSLGLDTR, peptide start residue: 48)”, -0.248. For the target “UniProt Q8BP27 (peptide sequence: SSSHSFCSVVK, peptide start residue: 139)”, the log2 fold change amounted to 0.268.

In the case of “UniProt Q8BJU0 (peptide sequence: KALELDPDNDTYKSNLK, peptide start residue: 185)”, the log2 fold change is 0.479.

Regarding “UniProt Q8BUH8 (peptide sequence: LDPLHQSLNLSER, peptide start residue: 143)”, the log2 fold change was determined as 0.369. Take “UniProt Q8BQQ1 (peptide sequence: MLGAGSPLAHSR, peptide start residue: 451)”: the log2 fold change was -0.3.

Regarding “UniProt Q8BQ30 (peptide sequence: KDYLEGCGREEEK, peptide start residue: 270)”, the log2 fold change is 0.316. The value for “UniProt Q8BKF1 (peptide sequence: ALLEFAEGRPLGPR, peptide start residue: 794)” was 0.671; that for “UniProt Q8BIH0 (peptide sequence: KAMLQEIANQK, peptide start residue: 936)” was 0.385.
